Measured values taken from US7393944.

Target: T1, T-bet (Mus musculus) (UniProt Q9JKD8)
T1 sequence: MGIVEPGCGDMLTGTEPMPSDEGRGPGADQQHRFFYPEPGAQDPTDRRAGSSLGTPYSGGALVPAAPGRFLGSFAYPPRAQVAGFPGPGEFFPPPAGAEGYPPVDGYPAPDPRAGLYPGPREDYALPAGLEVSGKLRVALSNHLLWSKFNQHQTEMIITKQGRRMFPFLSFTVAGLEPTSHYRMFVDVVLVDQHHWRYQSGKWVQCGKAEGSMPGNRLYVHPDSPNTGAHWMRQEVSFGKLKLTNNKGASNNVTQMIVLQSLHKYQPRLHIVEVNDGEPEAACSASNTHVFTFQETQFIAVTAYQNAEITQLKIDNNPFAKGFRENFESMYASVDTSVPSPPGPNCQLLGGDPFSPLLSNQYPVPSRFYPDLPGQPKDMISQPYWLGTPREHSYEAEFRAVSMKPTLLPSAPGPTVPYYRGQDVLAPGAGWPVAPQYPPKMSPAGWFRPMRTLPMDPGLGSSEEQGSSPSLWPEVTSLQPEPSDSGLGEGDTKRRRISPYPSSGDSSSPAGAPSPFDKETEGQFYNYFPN
Assay: activity in cells
Details: transactivation in Jurkat, increased by PMA/ionomycin; exact multimer sequence not given; protein in cells; protein details: pCDNA expression in Jurkat or …; only the site is given

## AATTTCACACCTAGGTGTGAAATT (double strand)
  activity on this sequence: active

Where a protein sequence is shown, tags need not be part of it.
